This test concerns the target T1, asialoglycoprotein receptor on Hep G2 human hepatoma cells (human) (UniProt P07306+P07307).
T1 sequence (looked up) 1: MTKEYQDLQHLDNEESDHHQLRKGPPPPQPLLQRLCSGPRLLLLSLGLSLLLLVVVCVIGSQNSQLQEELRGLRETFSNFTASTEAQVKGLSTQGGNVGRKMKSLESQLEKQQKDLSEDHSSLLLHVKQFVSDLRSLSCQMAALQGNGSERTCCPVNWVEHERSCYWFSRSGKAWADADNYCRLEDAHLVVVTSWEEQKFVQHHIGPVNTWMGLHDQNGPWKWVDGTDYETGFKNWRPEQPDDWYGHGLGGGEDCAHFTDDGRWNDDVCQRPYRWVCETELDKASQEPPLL
T1 sequence (looked up) 2: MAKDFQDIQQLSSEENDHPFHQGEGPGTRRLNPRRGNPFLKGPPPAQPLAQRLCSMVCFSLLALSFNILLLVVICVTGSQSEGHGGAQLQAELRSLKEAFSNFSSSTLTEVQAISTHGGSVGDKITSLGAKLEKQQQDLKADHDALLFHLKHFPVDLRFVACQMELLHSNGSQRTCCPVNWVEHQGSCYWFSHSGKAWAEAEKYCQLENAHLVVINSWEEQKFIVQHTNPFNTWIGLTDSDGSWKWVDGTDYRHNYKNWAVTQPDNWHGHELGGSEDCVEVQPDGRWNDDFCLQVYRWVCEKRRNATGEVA
Briefly: radiolabelled ligand on hepatoma cell lines; Hep G2 chosen as a receptor-expressing line.

Protein sequences, listed by entry. Tags and fused reporters are not part of them. Lines headed by an entry give the natural chain unless they say otherwise; changes in a name come on top.
UniProt P02763: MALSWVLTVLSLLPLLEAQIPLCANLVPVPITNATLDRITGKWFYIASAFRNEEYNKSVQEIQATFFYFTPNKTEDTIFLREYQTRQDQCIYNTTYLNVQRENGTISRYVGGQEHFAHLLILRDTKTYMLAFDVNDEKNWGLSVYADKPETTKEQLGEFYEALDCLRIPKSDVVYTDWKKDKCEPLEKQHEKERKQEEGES

These are yes or no findings as the source states them, for the method shown. Some entries that bind do so weakly or less than the wild type.

With “labeled asialo-orsomucoid (from UniProt P02763 19-201) (ligand)”, the binding entry is on record as “binds”.

The record behind these values is patent publication US20020187124A1.
